No constants are given. Whether binding was seen depends on the method and setting. Binding seen in cells or lysates may run through a third protein. Some results given as binding are weak or reduced against the parent protein; the word gives no strength. Tags and fused reporters may be left off the sequences shown.

Chains of the proteins cited; added tags and fusions are not shown. Residues count along the entry.
UniProt P84095, residues 1-188: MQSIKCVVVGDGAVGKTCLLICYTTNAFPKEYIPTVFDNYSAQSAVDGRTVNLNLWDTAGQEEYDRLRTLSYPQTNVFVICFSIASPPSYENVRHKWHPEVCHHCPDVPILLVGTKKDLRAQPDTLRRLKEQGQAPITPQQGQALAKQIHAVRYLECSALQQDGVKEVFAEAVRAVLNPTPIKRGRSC

This is an account of results in US20190064149A1, “CANCER EXAMINATION METHOD AND EXAMINATION KIT” (THE UNIVERSITY OF TOKYO, priority 2013, published 2019).

The target of this assay is RhoG (UniProt P84095). Briefly: pull-down with ELMO2/GST on glutathione beads from RIPA lysate, western blotting. On the technique in general: Immunoblotting shows a protein as a band on a membrane.

B1: fusion protein of ELMO2 and GST (protein, UniProt Q96JJ3 1-362, looked up, not shown: a dimerising Fc or GST)
chain: MPPPSDIVKVAIEWPGANAQLLEIDQKRPLASIIKEVCDGWSLPNPEYYTLRYADGPQLYITEQTRSDIKNGTILQLAISPSRAARQLMERTQSSNMETRLDAMKELAKLSADVTFATEFINMDGIIVLTRLVESGTKLLSHYSEMLAFTLTAFLELMDHGIVSWDMVSITFIKQIAGYVSQPMVDVSILQRSLAILESMVLNSQSLYQKIAEEITVGQLISHLQVSNQEIQTYAIALINALFLKAPEDKRQDMANAFAQKHLRSIILNHVIRGNRPIKTEMAHQLYVLQVLTFNLLEERMMTKMDPNDQAQRDIIFELRRIAFDAESDPSNAPGSGTEKRKAMYTKDYKMLGFTNHINPAM
As for B1, the binding result is “binds”.
